Measured values: PMC10279920, “Single-molecule visualization of Pif1 helicase translocation on single-stranded DNA” (The Journal of Biological Chemistry, 2023)
Changes are numbered by the printed parent chain. A weaker result is weaker than the reference pair of the same experiment. Tags and fusion partners may be left off the protein sequences shown. For part of these data: Construct, isoform or probe ends are uncertain for at least one entry. For part of these data: At least one verdict was read from the data and is not stated in words by the source.

Tests used:
Test in all cases: EMSA
Settings in all cases: no ATP, 5 mM Mg2+, 35 mM Tris-HCl pH 7.5, 1 mM DTT, 5 mM MgCl2, 60 mM KCl, 0.1 mg/ml BSA, 30 min at 30 C, 5 nM ssDNA, recombinant protein, residues 40-859, protein details: N-terminal superfolder GFP, Ni-NTA purified, label: 5' Alexa647, single-stranded DNA
[1] = biological target: T1, GFP-Pif1 H303A (Saccharomyces cerevisiae) (UniProt P07271)
T1 sequence (looked up): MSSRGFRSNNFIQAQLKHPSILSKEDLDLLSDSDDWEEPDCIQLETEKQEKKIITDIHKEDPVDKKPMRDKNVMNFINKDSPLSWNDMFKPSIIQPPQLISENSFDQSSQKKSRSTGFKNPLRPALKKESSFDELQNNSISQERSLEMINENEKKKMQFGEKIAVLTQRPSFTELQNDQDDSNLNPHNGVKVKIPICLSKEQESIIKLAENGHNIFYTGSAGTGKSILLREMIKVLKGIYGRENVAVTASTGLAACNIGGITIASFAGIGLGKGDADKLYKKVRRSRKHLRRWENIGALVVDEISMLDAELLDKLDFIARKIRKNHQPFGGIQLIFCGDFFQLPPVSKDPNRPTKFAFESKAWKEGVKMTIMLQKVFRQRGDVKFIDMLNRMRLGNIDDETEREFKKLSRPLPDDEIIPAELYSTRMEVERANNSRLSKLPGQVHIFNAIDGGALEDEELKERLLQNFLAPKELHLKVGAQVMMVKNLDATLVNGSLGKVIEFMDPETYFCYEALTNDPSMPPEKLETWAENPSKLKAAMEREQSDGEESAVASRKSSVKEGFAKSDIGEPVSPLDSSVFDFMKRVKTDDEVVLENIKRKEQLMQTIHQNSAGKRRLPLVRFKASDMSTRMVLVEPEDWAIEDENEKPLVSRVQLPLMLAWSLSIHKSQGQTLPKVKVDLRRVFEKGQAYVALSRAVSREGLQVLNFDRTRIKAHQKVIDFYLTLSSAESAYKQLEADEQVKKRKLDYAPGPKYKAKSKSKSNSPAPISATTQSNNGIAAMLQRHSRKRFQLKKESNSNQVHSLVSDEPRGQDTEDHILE

[2] = biological target: T2, GFP-Pif1 H705A (Saccharomyces cerevisiae) (UniProt P07271)
T2 sequence (looked up): T1 sequence (looked up) with A264H, H666A

[3] = biological target: T3, GFP-Pif1 N526A (Saccharomyces cerevisiae) (UniProt P07271)
T3 sequence (looked up): T1 sequence (looked up) with A264H, N487A

Measured: binding result

GCTAGCAGTAGCCAGCATCGAACGTACGATCGGTAACGTA [40-nt ssDNA]
binds more weakly: all assays above
